At least one structure is not confirmed: it was looked up by name or label, or the drawing left a doubt.
Tests used:
[1] = tested on: Mouse corticotroph pituitary tumor cells (AtT20); experiment: Growth of established corticotroph tumors in athymic nude mice; format: in vivo
From the text: The effects of TZD treatment were therefore tested on growth of already established pituitary corticotroph tumors, and steroid hormone levels in vivo. Mouse corticotroph pituitary tumor cells (AtT20) were innoculated subcutaneously in athymic nude mice, and tumors allowed to develop. […] Baseline serum ACTH and corticosterone levels, and tumor volumes were not different in the groups subsequently randomized as control or treated groups (data not shown, p=ns). […] All animals were euthanized at 6 weeks. The phenotypic appearance of the mice was strikingly different, and vehicle-treated mice were wasted, developed skin atrophy and appeared pigmented, with features of hypercorticolism (FIG. 8B).

[2] = tested on: rat GH3, murine αT3, and human pituitary tumor cells; experiment: Annexin-FITC, FACS and TUNEL apoptosis analysis; format: cell-based; conditions: 10^−5 to 10^−4 M, 96 hours, p<0.001
Protocol: Apoptosis Assay: Annexin FITC by flow Cytometry. GH3, αT3 and human pituitary tumor cells were treated, washed in PBS, trypsinized, centrifuged, and washed prior to incubation with a FITC-labeled monoclonal Annexin antibody and PI for 30 min at room temperature according to manufacturer's instructions (Pharmingen, San Diego, Cailf.). About 1×10^6 cells were prepared and analyzed by flow cytometry, labeled nuclei (PI) were gated on light scatter to remove debris, and the percentage of Annexin-FITC positive cells determined. Annexin-FITC positive cells were also visualized with an Olympus BH2 immunofluorescent microscope.
Terminal Deoxynucleotidyltransferase-mediated dUTP Nick End Labeling (TUNEL). Apoptosis-induced nuclear DNA fragmentation was detected using the in situ cell death detection kit, TMR red (Roche Diagnostics, Indianapolis, Ind.) following the manufacturer's protocol. Briefly, 48 hours following TZD treatment, GH3, αT3 and human pituitary tumor cells were fixed in 4% weight per volume paraformaldehyde, permeabilized with 0.1% sodium citrate/ 0.6% Tween 20 (pH 7.4) for 2 min at 4° C. prior to incubation in Tunel reaction mix (TMR red/dNTP mix, TdT, and labeling buffer) for 60 min at 37° C. Slides were washed (3×5 min) in PBS/Triton/BSA (0.3%) and visualized on a an Olympus BH2 immunofluorescent microscope.

[3] = tested on: human non-functioning pituitary tumor cells; experiment: Western blot analysis; format: cell-based
mouse αT3 cells = experiment: Northern blot analysis; format: cell-based
rat GH3 cells = experiment: Northern blot analysis; format: cell-based
[4] = tested on: Somatolactotroph (GH3) tumor cells; experiment: Somato-lactotroph tumor growth in athymic nude mice; format: in vivo, mouse; conditions: oral 150 mg/kg/day, 4 weeks; vehicle 3 of 4
[5] = tested on: mouse corticotroph tumor cells (AtT20); experiment: Western blot analysis of TZD-treated corticotroph cells; format: cell-based
Protocol: Western Blot Analysis: AtT20 cells were seeded at about 1×10^6 per well and human pituitary cell cultures were seeded at about 0.5×10^6 per well in 6-well plates for 24 hours prior to treatment with TZD's. Cells were then washed with PBS, and protein samples prepared in RIPA buffer and resolved under reducing conditions on 12% SDS-polyacrylamide gels using standard methods (Elstner, E., et al., Ligands for peroxisome proliferator-activated receptor-γ and retinoic acid receptor inhibit growth and induce apoptosis of human breast cancer cells in vitro and in BNX mice. Proc. Natl. Acad. Sci. USA 95:8806-8811 [1998]). Resolved proteins were transferred to nitrocellulose membranes and probed with antibodies to Bc1-2 (1:500), Bax (1:1000), TRAIL (1:500), p53 (1:1000) (all from Santa-Cruz, Cailf.), p-Rb (Ser 795) (1:1000), cleaved and uncleaved caspase-3 (1:500) (Cell Signalling, Beverly, Mass.) overnight at 4° C. After washing, membranes were incubated with appropriate IgG- horseradish peroxidase conjugates, and immunoreactive protein bands were visualized with ECL (Amersham, Buckinghamshire, UK). Total protein was normalized by reprobing with anti-actin antibody (1:5000, Sigma, St. Louis, Mo.) or Ponceau S staining, and protein bands quantified by densitometry (Video Densitometer model 620, Bio-Rad).

[6] = tested on: POMC promoter (-706/+64 rat POMC-luc) in AtT20 cells; experiment: POMC promoter luciferase reporter transfection; format: cell-based, mouse; conditions: rosiglitazone 10^−5 M, 48 hours, alone or prior to CRH 50 nM
From the text: Transfection with POMC promoter.

AtT20 cells = experiment: Apoptosis assay, Annexin-FITC; format: cell-based, mouse; conditions: 10^−5 to 10^−4 M, 48 hours, p<0.001
[7] = tested on: Mouse corticotroph AtT20 pituitary tumor cells; experiment: Prevention of subcutaneous corticotroph tumor development in athymic nude mice; format: in vivo; conditions: oral 150 mg/kg/day, 4 weeks; control four of five

CN(CCOc1ccc(CC2SC(=O)NC2=O)cc1)c1ccccn1 (racemic) [rosiglitazone, (±)-5-[[4-[2-(methyl-2-pyridinylamino)ethoxy]phenyl]methyl]-2,4-thiazolidinedione,(Z)-2-butenedioate] was tested, and the “tumor growth of established tumors” value ([1]; oral 150 mg/kg/day for 3 weeks, started 3 weeks post-inoculation) was “markedly abrogated (p<0.05) in 3 of 5”, the “phenotypic appearance (features of hypercorticolism)” value ([1]; oral 150 mg/kg/day, 3 weeks, vehicle mice wasted, skin atrophy, pigmented) was “continued to thrive and gain weight and did not display skin atrophy or pigmentation” and the Annexin-FITC immunoreactive cells [2] was “increase”. The “decrease in Ser^795 phosphorylated retinoblastoma protein expression” value [3] was “decreased expression”, the “decrease in PTTG mRNA expression” value (mouse αT3 cells) was “decreased expression” and the “PRL mRNA expression” value (rat GH3 cells) was “decreased”. The “decrease in PTTG mRNA expression” value (rat GH3 cells) was “decreased”, the “mice that developed visible subcutaneous tumors” value [4] was 3 of 5 and the “expression of anti-apoptotic protein Bc1-2” value ([5]; Western blot vs. vehicle) was “reduced expression”. The “expression of pro-apoptotic protein Bax” value ([5]; Western blot vs. vehicle) was “increased expression”, the “expression of pro-apoptotic protein p53” value ([5]; Western blot, 10^−5 M, vs. vehicle) was “increased expression” and the “basal and CRH-induced POMC transcription” value [6] was “abrogated”. The “Annexin-FITC immunoreactive AtT20 cells” value (AtT20 cells) was “dose-dependent increase” and the “animals that developed a corticotroph tumor” value [7] was “one of five”.

Source: patent US6673823B2, “Use of peroxisome proliferator activated receptor (PPAR)-γ ligands as a treatment for pituitary tumors and associated conditions, such as Cushing's syndrome” (Cedars-Sinai Medical Center, priority 2002, dated 2004)
